# Measured values published in PubChem BioAssay AID1439 (NMMLSC, 2008).
# Sequences of proteins named here, by UniProt entry; tags and fusion partners are left off.
# UniProt P09471, whole entry, looked up: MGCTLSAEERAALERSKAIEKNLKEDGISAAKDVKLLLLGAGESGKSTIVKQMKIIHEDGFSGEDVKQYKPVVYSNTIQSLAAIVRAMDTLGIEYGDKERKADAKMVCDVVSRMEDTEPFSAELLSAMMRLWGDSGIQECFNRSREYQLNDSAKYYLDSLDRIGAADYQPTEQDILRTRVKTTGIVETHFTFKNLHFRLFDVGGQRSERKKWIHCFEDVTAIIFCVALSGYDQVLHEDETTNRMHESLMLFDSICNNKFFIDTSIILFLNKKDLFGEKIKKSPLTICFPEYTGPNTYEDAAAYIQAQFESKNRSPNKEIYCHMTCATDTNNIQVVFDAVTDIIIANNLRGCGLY
# Screen size: about 220,000 compounds; about 770 (0.35%) were called active. The shares of active, inactive and inconclusive entries below differ from those in the screen. No stated cut-off is given here; in the data, active means binding response below about 49% or above about 150%; inconclusive means no clear call, values can overlap the other calls; inactive means in between.
# Target: Guanine nucleotide-binding protein G(o) subunit alpha (Homo sapiens) (UniProt P09471)
# Experiment: RGS7-Galphao binding modulators, primary screen, biochemical, multiplexed bead flow cytometry (AID 1439);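 further: fluorescent Galphao held in activated GDP-AlF4 state binding bead-coupled RGS7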
# Details: at 10 µM, actives lie on both sides
row,Compound,binding response (% of control)
1,CCc1ccc2[nH]c3nc(SCc4nnc(-c5ccccc5)o4)nnc3c2c1,inconclusive: 134%
2,Cc1cc([N+](=O)[O-])nn1CCCC(=O)Nc1c(C)n(C)n(-c2ccccc2)c1=O,inactive: 105%
3,O=C(CCCCCNC(=S)Nc1ccc(Cl)cc1)C[N+](=O)[O-],inconclusive: 86.8%
4,C/C(=N\NC(=O)C(=O)Nc1c(C)n(C)n(-c2ccccc2)c1=O)c1ccncc1,inconclusive: 118%
5,CCN1CCN(Cc2ccc(NC(=O)c3cc(NC(=O)c4cc5cccc(OC)c5o4)cc(OC)c3)cc2C(F)(F)F)CC1,inconclusive: 91.9%
6,O=C(NCCc1ccc(F)cc1)C1CCCCC1,inactive: 103%
7,CC(OC(=O)c1ccc(NS(=O)(=O)c2ccc3[nH]c(=O)[nH]c3c2)cc1)C(=O)Nc1ccc(Cl)cc1 (stereo unspecified),inconclusive: 76.2%
8,NS(=O)(=O)c1cccc(NC(=O)CSc2nc3ccccc3[nH]2)c1,inconclusive: 106%
9,Cc1cnc(NS(=O)(=O)c2ccc(Cl)cc2)c(Br)c1,inconclusive: 128%
10,C#CCOC(=O)C(NC(=O)c1ccccc1)=C(C)C,inactive: 89.7%
11,Cc1ccc(S(=O)(=O)C(F)(F)F)cc1NC(=O)c1cccnc1,inactive: 108%
12,CC(=O)c1csc(COc2ccccc2)n1,inconclusive: 150%
13,Cc1cc(C)n(-c2ccc(Cl)c(C(=O)Nc3cc(C(F)(F)F)ccc3Cl)n2)n1,inactive: 101%
14,COc1cc(-c2nnc(COC(=O)c3c4c(nc5ccccc35)CCCC4)o2)cc(OC)c1OC,inactive: 102%
15,CC(C)[C@H]1CN=C2N(C[C@H](C)NC(=O)CCC3CCCCC3)[C@H](Cc3ccc(O)cc3)CN21,inconclusive: 107%
16,O=C(O)CN1C(=O)S/C(=C\c2cccnc2)C1=O,inconclusive: 118%
17,NC(=O)N/N=C/c1ccc(OCc2cccc(Cl)c2)cc1,inconclusive: 112%
18,Cc1nc(-c2ccc(S(=O)(=O)Nc3cccc(S(N)(=O)=O)c3)s2)cs1,inconclusive: 153%
19,C/C(=N\NC(=O)C(N)=O)c1cccc([N+](=O)[O-])c1,inconclusive: 97.6%
20,O=c1c2ccccc2sn1-c1ccc(S(=O)(=O)N2CCCC2)cc1,inactive: 89.4%
21,CN(C)c1nc(C(=O)O)nc(N2CCOCC2)n1,inconclusive: -3.78%
22,Oc1ccccc1OCCOc1ccccc1OCCOc1ccccc1O,inconclusive: 152%
23,COc1ccc2c(c1)c(C(=O)N/N=C/c1ccc(O)c(O)c1)c(C)n2C,inactive: 92%

row,Compound,binding response (% of control)
1,COc1ccc(OC)c(/C=N/N=C(\N)c2nonc2N)c1,inconclusive: 84.8%
2,C/C(=N/OC(=O)c1ccc(Cl)cc1Cl)c1oc(C)nc1C,inconclusive: 77.7%
3,Cc1ccc(C(=O)C(O)C(c2ccc(C)cc2)N2CCCCC2)cc1 (stereo unspecified),inconclusive: 110%
4,COc1ccccc1CCNC(=O)c1csc2c1CCCC2,inconclusive: 103%
5,Cn1nnc2c[n+](CC(=O)c3ccc(Cl)cc3)cc(Br)c21,inconclusive: 94.8%
6,O=C1CCCC2=C1Sc1ccccc1N2,inconclusive: 121%
7,CCC1CCCCN1C(=O)COc1ccccc1NC(C)=O (stereo unspecified),inactive: 103%
8,Cc1occc1C(=O)NN=C1C2CC3CC(C2)CC1C3,inactive: 100%
9,CC1(C)CC2CC(C)(CN2/C=C2/CCCCC2=O)C1 (stereo unspecified),inconclusive: 99.5%
10,Cc1ccc(S(=O)(=O)Nc2nc3ccccc3nc2NCC2CCCO2)c(C)c1 (stereo unspecified),inconclusive: 364%
11,FC(F)(F)c1nnc(Nc2ccc(Cl)cc2)s1,inconclusive: 48%
12,CSc1nc(N)cc(=O)[nH]1,inconclusive: 91.1%
13,Fc1cccc(F)c1/C=N/NC(=S)Nc1cccnc1,inconclusive: 90.4%
14,Cc1ccc(/C=N/N(C)C2=NS(=O)(=O)c3ccccc32)o1,inconclusive: 107%
15,COc1cc(/C=C/C(=O)OC2CC3CCC2(C)C3(C)C)ccc1O (stereo unspecified),inconclusive: 100%
16,O=C(Nc1ccc(O)c2c(=O)cc(-c3ccccc3Cl)oc12)c1ccc(Cl)cc1Cl,inconclusive: 91.5%
17,CCCOc1ccc(CNC(=O)Cn2ncc3ccccc32)cc1,inconclusive: 103%
18,Cc1ccc2oc(=O)c3cc(C(=O)N4CCN(C)CC4)sc3c2c1,inconclusive: 83%
19,c1ccc(-c2ccc(C3CCCN3)cc2)cc1 (stereo unspecified),inconclusive: 159%
20,CC(C)C1CC(CCNCc2ccc3c(c2)OCO3)(c2ccccc2)CCO1 (stereo unspecified),inconclusive: 84.2%
21,O=C1NC2(CCCCCC2)C(=O)N1CCS(=O)(=O)Oc1ccccc1,inactive: 97.1%
22,CS(=O)(=O)c1ccc(SCC(=O)NC2CCS(=O)(=O)C2)c([N+](=O)[O-])c1 (stereo unspecified),inactive: 108%
23,COc1ccc2c(=O)c3c(=O)n(-c4ccccc4)c(-c4ccc(C)cc4)nc3oc2c1,inconclusive: 116%

# Looked up above:
# binding response (% of control), O=C(O)CN1C(=O)S/C(=C\c2cccnc2)C1=O reads inconclusive: 118%
# binding response (% of control), C/C(=N\NC(=O)C(=O)Nc1c(C)n(C)n(-c2ccccc2)c1=O)c1ccncc1 reads inconclusive: 118%
